# Several values for one entry are separate records, joined by “and”; a condition that tells them apart may be missing. Equal entries are not always repeated. Structures can show the parent of a compound that is named as a salt. ± gives the standard deviation of the averaged measurements. The list shows a part of the results. Part of the spread comes from offsets between plates or batches.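 Assay uses culture-activated primary human stellate myofibroblasts; lipid droplet recovery indicates inactivation. Measured: proportion of Hoechst-counted cells over a plate-specific Bodipy cutoff, duplicate wells, DMSO and nortriptyline as per-plate negative and positive controls. A hit scores, control-normalized, above the plate's top-tenth-percentile nortriptyline wells or ranks among its three best wells. Final well concentrations not reported.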
# Tested on: primary human hepatic stellate cells (donor 1)
# Assay: percent Bodipy-positive cells; higher = more lipid droplet accumulation
# Conditions: 48 h
# [1] = library stock concentration: 3.33 mM
# [2] = library stock concentration: 10 mM
# [3] = library stock concentration: 80 uM
# [4] = library stock concentration: 400 uM
# [5] = library stock concentration: 1 mM
structure (smiles),measurement,setting,value
CCC(=O)OCC(=O)[C@@]1(OC(=O)CC)[C@@H](C)C[C@H]2[C@@H]3CCC4=CC(=O)C=C[C@]4(C)[C@@]3(Cl)[C@@H](O)C[C@@]21C [Beclomethasone dipropionate],percent Bodipy-positive cells,,6.47 ± 0.79%
same,percent Bodipy-positive cells,[1],10.1 ± 0.3%
same,percent Bodipy-positive cells,[2],17.4% and 11.6% and 30.9%
COc1nc(N)nc2c1ncn2[C@@H]1O[C@H](CO)[C@@H](O)[C@@H]1O [Nelarabine],percent Bodipy-positive cells,[1],16 ± 6%
same,percent Bodipy-positive cells,[2],18.7 ± 6.1%
O=C1NC(=O)c2c1c1c3ccccc3[nH]c1n1cncc21 [Isogranulatimide],percent Bodipy-positive cells,[1],14 ± 8.5%
O=C(CCCN1CCC(O)(c2cccc(C(F)(F)F)c2)CC1)c1ccc(F)cc1 [Trifluperidol 2HCl],percent Bodipy-positive cells,library stock concentration: 4.9 mM,26.2 ± 0.29%
CN(C)CCCn1cc(C2=C(c3c[nH]c4ccccc34)C(=O)NC2=O)c2ccccc21,percent Bodipy-positive cells,[1],53.8 ± 2.3%
same,percent Bodipy-positive cells,[2],84.1 ± 2%
same,percent Bodipy-positive cells,library stock concentration: 12.1 mM,65.5 ± 15%
CN(C)CCCn1cc(C2=C(c3c[nH]c4ccccc34)C(=O)NC2=O)c2ccccc21 [Bisindolylmaleimide I],percent Bodipy-positive cells,[1],56.2 ± 2.4%
COc1ccccc1N1CCN(CCCNc2cc(=O)n(C)c(=O)n2C)CC1 [Urapidil HCl],percent Bodipy-positive cells,[1],5.81 ± 2.8%
same,percent Bodipy-positive cells,[2],23 ± 14%
COc1ccccc1N1CCN(CCCNc2cc(=O)n(C)c(=O)n2C)CC1,percent Bodipy-positive cells,[2],13.9 ± 0.24%
COc1ccccc1N1CCN(CCCNc2cc(=O)n(C)c(=O)n2C)CC1 [Urapidil],percent Bodipy-positive cells,[2],56.3 ± 22%
COc1ccccc1N1CCN(CCCNc2cc(=O)n(C)c(=O)n2C)CC1 [Urapidil hydrochloride],percent Bodipy-positive cells,,7.87 ± 3%
same,percent Bodipy-positive cells,[2],20.6% and 6.63%
O=C(Nc1cccc(Nc2ncc(Br)c(NCCc3cnc[nH]3)n2)c1)N1CCCC1,percent Bodipy-positive cells,[3],10.3 ± 2.4%
same,percent Bodipy-positive cells,[4],15.4% and 23.6%
same,percent Bodipy-positive cells,library stock concentration: 2 mM,13.3% and 29%
same,percent Bodipy-positive cells,[1],7.37 ± 4.8%
same,percent Bodipy-positive cells,[2],65.8% and 87.6%
CN/C(=N\c1ccc(C2=NNC(=O)CC2C)cc1)NC#N (stereo not drawn) [Siguazodan],percent Bodipy-positive cells,library stock concentration: 7 mM,10 ± 2.8%
same,percent Bodipy-positive cells,[2],9.49 ± 1.1%
CCCCCCCCCCOCCC(=O)O [4-Oxatetradecanoic acid],percent Bodipy-positive cells,[5],35.1 ± 8.1%
C=C1C[C@H](O)[C@H](C/C=C\CCCC(=O)O)[C@H]1/C=C/[C@@H](O)CCCCC [11-deoxy-11-methylene Prostaglandin D2],percent Bodipy-positive cells,[5],12.4 ± 3.5%
CSc1ccccc1N1CCN(CCCCCC(=O)NC2CCCc3ccccc32)CC1.Cl (stereo not drawn),percent Bodipy-positive cells,[2],93.6 ± 1.8%
"CCCCCC=CCC=CCC=CCC=CCCCCCC(=O)O [Adrenic acid (22:4, n-6)]",percent Bodipy-positive cells,[5],21.9 ± 11%
c1cn2cc(-c3ccc4cn[nH]c4c3)nc(Nc3ccc(N4CCOCC4)cc3)c2n1 [Entospletinib],percent Bodipy-positive cells,[3],8.61 ± 2.4%
same,percent Bodipy-positive cells,[4],9.28 ± 0.98%
O=C1CCC(N2C(=O)c3ccccc3C2=O)C(=O)N1 (stereo not drawn) [(?)-Thalidomide],percent Bodipy-positive cells,[2],22.2 ± 0.5%
O=C1CCC(N2C(=O)c3ccccc3C2=O)C(=O)N1 (stereo not drawn) [Thalidomide],percent Bodipy-positive cells,,26.2 ± 0.7%
same,percent Bodipy-positive cells,[1],5.75 ± 1.7%
same,percent Bodipy-positive cells,library stock concentration: 7.7 mM,7.06% and 8.42%
same,percent Bodipy-positive cells,library stock concentration: 19.4 mM,9.47 ± 6.1%
O=C(OC[C@@H]1O[C@H]1c1ccccc1)Oc1ccc([N+](=O)[O-])cc1,percent Bodipy-positive cells,[5],10.1 ± 1.8%
CN(C)CCCN1c2ccccc2CCc2ccc(Cl)cc21.Cl [Clomipramine HCl],percent Bodipy-positive cells,[2],91.3 ± 2.3%
O=C(Nc1cccc2cccnc12)c1ccc(N2C(=O)[C@@H]3[C@H](C2=O)[C@@H]2C=C[C@H]3C2)cc1 [endo-IWR 1],percent Bodipy-positive cells,[2],7.83 ± 0.83%
C=CCCCCCCCCC(=O)O [Undecylenic acid],percent Bodipy-positive cells,library stock concentration: 10.9 mM,9.58 ± 2.2%
CC1(C)S[C@@H]2[C@H](NC(=O)Cc3ccccc3)C(=O)N2[C@H]1C(=O)O [Benzyl penicillin potassium],percent Bodipy-positive cells,[2],19 ± 16%
CC1(C)S[C@@H]2[C@H](NC(=O)Cc3ccccc3)C(=O)N2[C@H]1C(=O)O [Pfizerpen],percent Bodipy-positive cells,[2],24.8 ± 6.9%
CC1(C)S[C@@H]2[C@H](NC(=O)Cc3ccccc3)C(=O)N2[C@H]1C(=O)O [Benzathine benzylpenicillin],percent Bodipy-positive cells,,16.8 ± 8.9%
CC1(C)S[C@@H]2[C@H](NC(=O)Cc3ccccc3)C(=O)N2[C@H]1C(=O)O [Penicillin G Sodium],percent Bodipy-positive cells,[1],10.1 ± 9.1%
same,percent Bodipy-positive cells,[2],44.2 ± 16%
CC1(C)S[C@@H]2[C@H](NC(=O)Cc3ccccc3)C(=O)N2[C@H]1C(=O)O [Benzylpenicillin sodium],percent Bodipy-positive cells,,12 ± 6.3%
CC1(C)S[C@@H]2[C@H](NC(=O)Cc3ccccc3)C(=O)N2[C@H]1C(=O)O [Penicillin g potassium],percent Bodipy-positive cells,library stock concentration: 5.4 mM,1.94 ± 2.7%
CCCCc1nc(Cl)c(CO)n1Cc1ccc(-c2ccccc2-c2nnn[nH]2)cc1 [Losartan Potassium (DuP 753)],percent Bodipy-positive cells,[1],12.5 ± 7.6%
same,percent Bodipy-positive cells,[2],27.9 ± 20%
CCCCc1nc(Cl)c(CO)n1Cc1ccc(-c2ccccc2-c2nnn[nH]2)cc1 [LOSARTAN Potassium],percent Bodipy-positive cells,[2],6.86 ± 0.54%
CCCCc1nc(Cl)c(CO)n1Cc1ccc(-c2ccccc2-c2nnn[nH]2)cc1 [Losartan],percent Bodipy-positive cells,library stock concentration: 4.7 mM,6.65 ± 3.3%
same,percent Bodipy-positive cells,[2],39.6 ± 1.5%
CCN(CC)CCNC(=O)COc1ccc(OC)cc1 [Mefexamide hydrochloride],percent Bodipy-positive cells,,31.7 ± 20%
CCN(CC)CCNC(=O)COc1ccc(OC)cc1 [Mefexamide],percent Bodipy-positive cells,library stock concentration: 6.3 mM,20.9 ± 3.6%
same,percent Bodipy-positive cells,[2],26.5 ± 4.7%
Cc1nc2n(c(=O)c1CCN1CCC(c3noc4cc(F)ccc34)CC1)CCCC2O (stereo not drawn) [Paliperidone],percent Bodipy-positive cells,[2],65.5 ± 13%
CC(=O)OCC1=C(C(=O)O)N2C(=O)[C@@H](NC(=O)Cc3cccs3)[C@H]2SC1 [Cephalothin sodium],percent Bodipy-positive cells,library stock concentration: 4.8 mM,2.17 ± 0.79%
CC(=O)OCC1=C(C(=O)O)N2C(=O)[C@@H](NC(=O)Cc3cccs3)[C@H]2SC1 [Cephalothin sodium salt],percent Bodipy-positive cells,,10.5 ± 0.44%
CCOc1ccc(NC(=O)CC(C)O)cc1 (stereo not drawn),percent Bodipy-positive cells,[2],36.5 ± 5.2%

# Part of the list above, with bars between the fields:
structure (smiles) | measurement | setting | value
CCC(=O)OCC(=O)[C@@]1(OC(=O)CC)[C@@H](C)C[C@H]2[C@@H]3CCC4=CC(=O)C=C[C@]4(C)[C@@]3(Cl)[C@@H](O)C[C@@]21C [Beclomethasone dipropionate] | percent Bodipy-positive cells | [1] | 10.1 ± 0.3%
O=C1NC(=O)c2c1c1c3ccccc3[nH]c1n1cncc21 [Isogranulatimide] | percent Bodipy-positive cells | [1] | 14 ± 8.5%
COc1ccccc1N1CCN(CCCNc2cc(=O)n(C)c(=O)n2C)CC1 [Urapidil hydrochloride] | percent Bodipy-positive cells |  | 7.87 ± 3%
CC(=O)OCC1=C(C(=O)O)N2C(=O)[C@@H](NC(=O)Cc3cccs3)[C@H]2SC1 [Cephalothin sodium] | percent Bodipy-positive cells | library stock concentration: 4.8 mM | 2.17 ± 0.79%

# Reference: the supplement of paper PMC9135407
